Measurements reported in PubChem BioAssay AID1508587 (Peter MacCallum Cancer Centre, 2020)

Aim: 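Knockdowns that add to vemurafenib's cut in melanoma glycolysis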 (follow-up of hits)
Cell system: human WM266.4 melanoma cells with a BRAF V600 mutation
Reagents: single siRNA against human genes, 25 nM
Timing: 96 h
Treatment: vemurafenib 300 nM (about IC25), given 48 h after transfection for 48 h
Detection: 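Per-cell lactate from absorbance divided by DAPI nucleus counts, compared with and without vemurafenib, relative to non-targeting siRNA, mean of 2 replicates; nuclear counts also give cell number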
Scale: lactate per cell, drug vs no drug: higher = less drug-induced drop in lactate per cell; lactate per cell with vemurafenib: higher = more lactate per cell under drug
Call rule: 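a duplex is active when its lactate-per-cell ratio with versus without drug falls under 0.55, i.e. 2 SD below non-targeting; a gene is confirmed if 2 or more of 4 duplexes pass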
The whole screen tested about 1,600 reagents; below is a random part of them. 623 of them (39%) were called active. 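Calls are for each duplex; lactate ratios contain extreme outliers.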 The numbers tell different reagents against one gene apart. Further read-outs or replicates are left out here. Reagent sequences are not shown.

target | reagent no. | lactate per cell, drug vs no drug | lactate per cell with vemurafenib | activity call
LGALS9C (galectin 9C) | 1 | 0.71 | 1.58 | inactive
LGALS9C (galectin 9C) | 2 | 0.53 | 0.89 | active
LGALS9C (galectin 9C) | 3 | 0.86 | 1.7 | inactive
LGALS9C (galectin 9C) | 4 | 0.99 | 3.13 | inactive
ANKRD50 (ankyrin repeat domain 50) | 1 | 0.59 | 1.46 | inactive
ANKRD50 (ankyrin repeat domain 50) | 2 | 0.48 | 0.76 | active
ANKRD50 (ankyrin repeat domain 50) | 3 | 0.46 | 0.77 | active
ANKRD50 (ankyrin repeat domain 50) | 4 | 0.47 | 0.87 | active
LRCH3 | 1 | 0.96 | 5.04 | inactive
LRCH3 | 2 | 0.39 | 1.25 | active
LRCH3 | 3 | 0.5 | 1.14 | active
LRCH3 | 4 | 0.38 | 0.68 | active
TBCB (tubulin folding cofactor B) | 1 | 0.7 | 1.17 | inactive
TBCB (tubulin folding cofactor B) | 2 | 0.54 | 0.94 | active
TBCB (tubulin folding cofactor B) | 3 | 0.54 | 1.12 | active
TBCB (tubulin folding cofactor B) | 4 | 0.88 | 1.5 | inactive
HEPH (hephaestin) | 1 | 0.62 | 1.68 | inactive
HEPH (hephaestin) | 2 | 0.47 | 0.64 | active
HEPH (hephaestin) | 3 | 0.36 | 0.4 | active
HEPH (hephaestin) | 4 | 0.62 | 0.96 | inactive
KTI12 (KTI12 chromatin associated homolog) | 1 | 0.69 | 0.96 | inactive
KTI12 (KTI12 chromatin associated homolog) | 2 | 0.46 | 1.27 | active
KTI12 (KTI12 chromatin associated homolog) | 3 | 0.56 | 1.15 | inactive
KTI12 (KTI12 chromatin associated homolog) | 4 | 0.56 | 1.08 | inactive
VPS33B (VPS33B late endosome and lysosome associated) | 1 | 0.6 | 1.31 | inactive
VPS33B (VPS33B late endosome and lysosome associated) | 2 | 0.64 | 0.96 | inactive
VPS33B (VPS33B late endosome and lysosome associated) | 3 | 0.41 | 1.5 | active
VPS33B (VPS33B late endosome and lysosome associated) | 4 | 0.74 | 2.16 | inactive

Continued, starting with the last 2 of the part before.
target | reagent no. | lactate per cell, drug vs no drug | lactate per cell with vemurafenib | activity call
VPS33B (VPS33B late endosome and lysosome associated) | 3 | 0.41 | 1.5 | active
VPS33B (VPS33B late endosome and lysosome associated) | 4 | 0.74 | 2.16 | inactive
PRM3 (protamine 3) | 1 | 0.26 | 0.36 | active
PRM3 (protamine 3) | 2 | 0.32 | 0.78 | active
PRM3 (protamine 3) | 3 | 0.38 | 0.72 | active
PRM3 (protamine 3) | 4 | 0.33 | 0.98 | active
RNF11 (ring finger protein 11) | 1 | 0.38 | 0.76 | active
RNF11 (ring finger protein 11) | 2 | 0.42 | 2.88 | active
RNF11 (ring finger protein 11) | 3 | 0.6 | 0.72 | inactive
RNF11 (ring finger protein 11) | 4 | 0.68 | 3.21 | inactive
LCE4A (late cornified envelope 4A) | 1 | 0.58 | 0.92 | inactive
LCE4A (late cornified envelope 4A) | 2 | 0.64 | 1.17 | inactive
LCE4A (late cornified envelope 4A) | 3 | 0.72 | 0.9 | inactive
LCE4A (late cornified envelope 4A) | 4 | 0.52 | 2.9 | active
KRTAP2-4 (keratin associated protein 2-4) | 1 | 0.62 | 2.36 | inactive
KRTAP2-4 (keratin associated protein 2-4) | 2 | 0.62 | 1.12 | inactive
KRTAP2-4 (keratin associated protein 2-4) | 3 | 0.57 | 2.02 | inactive
KRTAP2-4 (keratin associated protein 2-4) | 4 | 0.55 | 2.96 | inactive
SCLT1 (sodium channel and clathrin linker 1) | 1 | 0.28 | 1.13 | active
SCLT1 (sodium channel and clathrin linker 1) | 2 | 0.51 | 1.38 | active
SCLT1 (sodium channel and clathrin linker 1) | 3 | 0.68 | 1 | inactive
SCLT1 (sodium channel and clathrin linker 1) | 4 | 0.61 | 1.86 | inactive
TSLIG3C (tRNA splicing ligase complex subunit 3C) | 1 | 0.6 | 1.37 | inactive
TSLIG3C (tRNA splicing ligase complex subunit 3C) | 2 | 0.5 | 0.93 | active
TSLIG3C (tRNA splicing ligase complex subunit 3C) | 3 | 1.81 | 5.02 | inactive
TSLIG3C (tRNA splicing ligase complex subunit 3C) | 4 | 0.57 | 1.11 | inactive
CT47A6 (cancer/testis antigen family 47 member A6) | 1 | 0.55 | 0.98 | inactive
CT47A6 (cancer/testis antigen family 47 member A6) | 2 | 0.65 | 1.29 | inactive
CT47A6 (cancer/testis antigen family 47 member A6) | 3 | 0.7 | 1.99 | inactive
CT47A6 (cancer/testis antigen family 47 member A6) | 4 | 0.34 | 0.44 | active
FAM156A (family with sequence similarity 156 member A) | 1 | 0.6 | 4.3 | inactive
FAM156A (family with sequence similarity 156 member A) | 2 | 1.18 | 2.7 | inactive
FAM156A (family with sequence similarity 156 member A) | 3 | 0.64 | 1.15 | inactive
FAM156A (family with sequence similarity 156 member A) | 4 | 0.38 | 0.68 | active
MRS2 (magnesium transporter MRS2) | 1 | 0.5 | 0.44 | active
MRS2 (magnesium transporter MRS2) | 2 | 0.53 | 1.06 | active
MRS2 (magnesium transporter MRS2) | 3 | 0.49 | 0.46 | active
MRS2 (magnesium transporter MRS2) | 4 | 0.69 | 1.62 | inactive
